No constants are given. Whether binding was seen depends on the method and setting. Binding seen in cells or lysates may run through a third protein. Some results given as binding are weak or reduced against the parent protein; the word gives no strength.
Target: Staphylococcal Nuclease Domain-containing protein 1 (SND1) (human (endogenous in U251)) (UniProt Q7KZF4)
Experiment: co-IP; total U251 cell lysate (Pierce IP Lysis/Wash Buffer: 0.025 M Tris pH 7.4, 0.15 M NaCl, 0.001 M EDTA, 1% NP-40, 5% glycerol); IP with anti-SND1 overnight at 4 °C, anti-rabbit IgG as negative control; western blot for BRG1

Amino acid sequences for entries named in this document (tags omitted).
UniProt Q7KZF4: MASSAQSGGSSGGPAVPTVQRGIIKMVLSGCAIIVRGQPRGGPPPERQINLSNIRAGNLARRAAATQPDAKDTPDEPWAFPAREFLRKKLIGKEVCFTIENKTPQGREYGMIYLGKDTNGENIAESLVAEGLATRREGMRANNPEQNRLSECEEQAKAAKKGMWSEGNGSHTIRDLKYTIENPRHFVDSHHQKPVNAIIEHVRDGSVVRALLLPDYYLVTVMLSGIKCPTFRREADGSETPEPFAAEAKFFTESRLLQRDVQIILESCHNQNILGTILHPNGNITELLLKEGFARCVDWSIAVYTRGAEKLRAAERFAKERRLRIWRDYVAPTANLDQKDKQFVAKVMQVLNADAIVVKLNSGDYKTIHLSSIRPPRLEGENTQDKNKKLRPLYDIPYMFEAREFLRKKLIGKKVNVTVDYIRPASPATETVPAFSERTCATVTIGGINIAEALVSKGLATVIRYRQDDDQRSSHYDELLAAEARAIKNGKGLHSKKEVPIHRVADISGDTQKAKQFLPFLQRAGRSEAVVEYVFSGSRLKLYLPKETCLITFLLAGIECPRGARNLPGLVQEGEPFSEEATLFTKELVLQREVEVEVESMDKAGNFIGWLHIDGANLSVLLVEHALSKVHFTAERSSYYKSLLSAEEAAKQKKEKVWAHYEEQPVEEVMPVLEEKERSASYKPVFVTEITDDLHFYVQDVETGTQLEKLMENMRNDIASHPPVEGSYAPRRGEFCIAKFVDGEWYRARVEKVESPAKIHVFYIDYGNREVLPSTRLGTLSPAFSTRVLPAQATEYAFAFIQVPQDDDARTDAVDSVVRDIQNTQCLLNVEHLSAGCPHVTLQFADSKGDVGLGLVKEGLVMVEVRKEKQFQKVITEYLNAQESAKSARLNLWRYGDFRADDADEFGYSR
UniProt P51532: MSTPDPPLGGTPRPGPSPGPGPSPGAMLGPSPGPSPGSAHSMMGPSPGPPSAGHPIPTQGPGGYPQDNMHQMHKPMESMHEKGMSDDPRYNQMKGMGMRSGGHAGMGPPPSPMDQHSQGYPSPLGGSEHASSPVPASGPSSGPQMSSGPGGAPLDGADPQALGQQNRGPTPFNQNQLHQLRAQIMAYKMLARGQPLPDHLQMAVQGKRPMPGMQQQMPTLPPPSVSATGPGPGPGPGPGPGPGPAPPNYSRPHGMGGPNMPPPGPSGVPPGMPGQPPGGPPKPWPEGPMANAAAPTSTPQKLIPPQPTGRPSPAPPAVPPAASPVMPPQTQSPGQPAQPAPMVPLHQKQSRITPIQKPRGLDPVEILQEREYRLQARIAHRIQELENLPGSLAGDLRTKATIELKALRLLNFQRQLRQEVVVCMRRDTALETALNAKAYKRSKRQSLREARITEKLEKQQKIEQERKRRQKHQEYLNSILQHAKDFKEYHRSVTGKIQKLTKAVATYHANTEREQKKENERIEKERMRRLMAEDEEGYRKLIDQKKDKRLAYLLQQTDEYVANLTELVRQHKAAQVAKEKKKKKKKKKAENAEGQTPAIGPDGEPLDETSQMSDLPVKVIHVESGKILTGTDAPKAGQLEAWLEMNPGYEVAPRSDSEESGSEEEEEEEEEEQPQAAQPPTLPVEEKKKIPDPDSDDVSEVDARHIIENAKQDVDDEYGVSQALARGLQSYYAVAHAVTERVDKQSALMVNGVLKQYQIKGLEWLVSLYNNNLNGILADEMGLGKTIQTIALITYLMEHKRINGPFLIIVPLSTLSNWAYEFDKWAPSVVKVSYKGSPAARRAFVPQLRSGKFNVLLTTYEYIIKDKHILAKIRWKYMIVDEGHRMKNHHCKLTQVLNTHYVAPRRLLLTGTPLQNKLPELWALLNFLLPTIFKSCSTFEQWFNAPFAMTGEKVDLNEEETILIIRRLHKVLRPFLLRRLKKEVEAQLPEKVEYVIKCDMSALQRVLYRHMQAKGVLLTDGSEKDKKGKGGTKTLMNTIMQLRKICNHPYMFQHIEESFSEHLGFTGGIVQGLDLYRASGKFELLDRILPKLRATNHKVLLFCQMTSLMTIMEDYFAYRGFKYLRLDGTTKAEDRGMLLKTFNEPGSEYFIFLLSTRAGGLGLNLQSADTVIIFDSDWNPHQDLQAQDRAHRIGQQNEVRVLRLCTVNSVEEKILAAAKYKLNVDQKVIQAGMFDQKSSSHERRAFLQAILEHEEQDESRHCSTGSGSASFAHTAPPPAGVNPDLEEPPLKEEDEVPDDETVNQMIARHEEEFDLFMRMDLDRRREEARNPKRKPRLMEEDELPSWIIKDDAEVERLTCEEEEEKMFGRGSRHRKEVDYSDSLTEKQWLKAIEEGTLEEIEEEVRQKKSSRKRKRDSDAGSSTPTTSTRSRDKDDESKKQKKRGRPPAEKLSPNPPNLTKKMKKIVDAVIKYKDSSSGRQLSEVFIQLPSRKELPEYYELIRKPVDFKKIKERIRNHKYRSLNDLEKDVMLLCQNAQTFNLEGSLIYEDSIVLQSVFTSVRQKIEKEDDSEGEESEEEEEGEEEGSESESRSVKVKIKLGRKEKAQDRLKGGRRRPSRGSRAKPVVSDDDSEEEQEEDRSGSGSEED

In the case of “BRG1, a core SWI/SNF subunit (from UniProt P51532 1-1647)”, the binding is reported as “binds”.

Source: article PMC11339422
